Test results published in patent publication US20230194519A1 (CCOA THERAPEUTICS, published 2023).
Results are given in words; binding and its absence hold for the method and conditions named. Some results given as binding are weak or reduced against the parent protein; the word gives no strength.

By UniProt entry, the sequences of proteins in these tests, tags left out. Where a name states a change or a piece, a line headed by the entry shows the natural chain unless it says otherwise.
UniProt P08514: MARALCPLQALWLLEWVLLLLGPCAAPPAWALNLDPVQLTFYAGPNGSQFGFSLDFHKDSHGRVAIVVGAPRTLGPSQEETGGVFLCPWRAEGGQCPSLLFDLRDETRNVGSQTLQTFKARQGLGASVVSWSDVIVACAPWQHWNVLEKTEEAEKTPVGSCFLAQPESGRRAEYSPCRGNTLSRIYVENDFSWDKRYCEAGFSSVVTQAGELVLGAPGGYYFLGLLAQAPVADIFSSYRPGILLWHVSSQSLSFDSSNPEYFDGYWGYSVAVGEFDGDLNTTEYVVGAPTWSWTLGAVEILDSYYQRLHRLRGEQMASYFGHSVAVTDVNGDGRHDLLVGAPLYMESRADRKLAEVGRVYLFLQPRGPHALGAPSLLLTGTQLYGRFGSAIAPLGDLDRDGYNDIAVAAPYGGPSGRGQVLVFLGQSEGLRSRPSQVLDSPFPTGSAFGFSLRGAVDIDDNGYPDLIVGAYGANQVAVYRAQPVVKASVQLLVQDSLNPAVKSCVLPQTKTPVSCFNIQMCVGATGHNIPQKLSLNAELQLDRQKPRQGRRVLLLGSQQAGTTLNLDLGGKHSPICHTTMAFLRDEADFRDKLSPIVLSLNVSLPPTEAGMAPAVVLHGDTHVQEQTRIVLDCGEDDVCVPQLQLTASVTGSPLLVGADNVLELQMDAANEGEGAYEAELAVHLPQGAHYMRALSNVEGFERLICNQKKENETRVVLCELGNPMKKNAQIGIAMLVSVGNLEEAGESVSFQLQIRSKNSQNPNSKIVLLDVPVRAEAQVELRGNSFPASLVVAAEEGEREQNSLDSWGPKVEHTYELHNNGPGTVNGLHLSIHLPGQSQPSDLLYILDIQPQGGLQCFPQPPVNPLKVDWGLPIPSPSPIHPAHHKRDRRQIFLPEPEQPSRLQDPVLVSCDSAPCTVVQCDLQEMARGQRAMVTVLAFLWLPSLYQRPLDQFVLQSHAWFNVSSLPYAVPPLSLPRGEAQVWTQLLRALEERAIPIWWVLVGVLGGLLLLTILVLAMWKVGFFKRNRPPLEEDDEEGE

Legend:
[1] = target: Activated αIIbβ3 (recombinant human ectodomain αIIbβ3 on DETA beads after incubation in activation buffer with CaCl2, MnCl2 and MgCl2) (human) (UniProt P08514); test: flow cytometry of activated αIIbβ3 beads with Alexa488-fibrinogen
[2] = target: Activated αIIbβ3 (recombinant human ectodomain αIIbβ3 on DETA beads after incubation in activation buffer with CaCl2, MnCl2 and MgCl2) (human) (UniProt P08514); test: flow cytometry of activated adsorbed versus covalently bound αIIbβ3 beads with fibrinogen

binding [1]: binds | binding [2]: binds
B1: fibrinogen (ligand)
chain 1: ADSGEGDFLAEGGGVRGPRVVERHQSACKDSDWPFCSDEDWNYKCPSGCRMKGLIDEVNQDFTNRINKLKNSLFEYQKNNKDSHSLTTNIMEILRGDFSSANNRDNTYNRVSEDLRSRIEVLKRKVIEKVQHIQLLQKNVRAQLVDMKRLEVDIDIKIRSCRGSCSRALAREVDLKDYEDQQKQLEQVIAKDLLPSRDRQHLPLIKMKPVPDLVPGNFKSQLQKVPPEWKALTDMPQMRMELERPGGNEITRGGSTSYGTGSETESPRNPSSAGSWNSGSSGPGSTGNRNPGSSGTGGTATWKPGSSGPGSTGSWNSGSSGTGSTGNQNPGSPRPGSTGTWNPGSSERGSAGHWTSESSVSGSTGQWHSESGSFRPDSPGSGNARPNNPDWGTFEEVSGNVSPGTRREYHTEKLVTSKGDKELRTGKEKVTSGSTTTTRRSCSKTVTKTVIGPDGHKEVTKEVVTSEDGSDCPEAMDLGTLSGIGTLDGFRHRHPDEAAFFDTASTGKTFPGFFSPMLGEFVSETESRGSESGIFTNTKESSSHHPGIAEFPSRGKSSSYSKQFTSSTSYNRGDSTFESKSYKMADEAGSEADHEGTHSTKRGHAKSRPV
chain 2: QGVNDNEEGFFSARGHRPLDKKREEAPSLRPAPPPISGGGYRARPAKAAATQKKVERKAPDAGGCLHADPDLGVLCPTGCQLQEALLQQERPIRNSVDELNNNVEAVSQTSSSSFQYMYLLKDLWQKRQKQVKDNENVVNEYSSELEKHQLYIDETVNSNIPTNLRVLRSILENLRSKIQKLESDVSAQMEYCRTPCTVSCNIPVVSGKECEEIIRKGGETSEMYLIQPDSSVKPYRVYCDMNTENGGWTVIQNRQDGSVDFGRKWDPYKQGFGNVATNTDGKNYCGLPGEYWLGNDKISQLTRMGPTELLIEMEDWKGDKVKAHYGGFTVQNEANKYQISVNKYRGTAGNALMDGASQLMGENRTMTIHNGMFFSTYDRDNDGWLTSDPRKQCSKEDGGGWWYNRCHAANPNGRYYWGGQYTWDMAKHGTDDGVVWMNWKGSWYSMRKMSMKIRPFFPQQ
chain 3: YVATRDNCCILDERFGSYCPTTCGIADFLSTYQTKVDKDLQSLEDILHQVENKTSEVKQLIKAIQLTYNPDESSKPNMIDAATLKSRKMLEEIMKYEASILTHDSSIRYLQEIYNSNNQKIVNLKEKVAQLEAQCQEPCKDTVQIHDITGKDCQDIANKGAKQSGLYFIKPLKANQQFLVYCEIDGSGNGWTVFQKRLDGSVDFKKNWIQYKEGFGHLSPTGTTEFWLGNEKIHLISTQSAIPYALRVELEDWNGRTSTADYAMFKVGPEADKYRLTYAYFAGGDAGDAFDGFDFGDDPSDKFFTSHNGMQFSTWDNDNDKFEGNCAEQDGSGWWMNKCHAGHLNGVYYQGGTYSKASTPNGYDNGIIWATWKTRWYSMKKTTMKIIPFNRLTIGEGQQHHLGGAKQAGDV
modifications: Alexa488 label in the Table 2 assay
notes: Native ligand of αIIbβ3; also called Alexa488 labelled fibrinogen; Alexa 488 - Fibrinogen
